In PubChem BioAssay AID2098 (Broad Institute, 2009):
Screen size: about 300,000 compounds; about 2,300 (0.77%) were called active. Inconclusive results, whose numbers are uncertain, are shown with a selection of clear calls.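 How the source made its calls: active means more than half of replicate wells show activity change below -50%, luminescence cut by over half; inconclusive means some wells, but at most half, below -50%; inactive means no replicate well below -50%.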

assay: HSF1 inhibitors in luciferase reporter cells, primary screen, cell-based, NIH3T3, luminescence (AID 2098); details: NIH3T3-HGL HSE-luciferase, MG132-induced, luminescence 8 h; active compounds read low; screened at 7.5 µM (by protocol);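 further: luciferase reports HSF-1 transcriptional activity via heat shock element; 0% = median of DMSO wells and -100% = zero luminescence signal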

Row | Compound | activity change, negative = inhibition
1 | COc1ccccc1C1CCN(C(=S)Nc2ccc(Br)cc2)CC1 | inconclusive: -51.4%
2 | Cc1ccsc1/C=C(\C#N)C(=O)Nc1c(C)n(C)n(-c2ccccc2)c1=O | inactive: -8.35%
3 | O=C(NCCCN1CCCC1=O)c1cccc(N2CCCC2=O)c1 | inconclusive: -49.7%
4 | COc1ccc(NC(=O)C(NC(=O)CNC(C)=O)c2ccc(C)cc2)cc1 (stereo unspecified) | inconclusive: -67.8%
5 | CC12CCC(C/C1=N\N=C1\NC(=O)/C(=C\c3ccc(Cl)cc3)S1)C2(C)C (stereo unspecified) | active: -94.2%
6 | O=C(O)CC(C(=O)O)N1C(=O)/C(=C/C=C/c2ccco2)SC1=S (stereo unspecified) | inactive: -2.51%
7 | COC(=O)Cc1n[nH]c(=O)c2ccccc12 | inconclusive: -30.7%
8 | COC(=O)CN1C(=O)Nc2ccc(C)cc2C1c1ccccc1 (stereo unspecified) | active: -70%
9 | Cn1c(/C=C/c2cccc(Br)c2)nc2ccccc2c1=O | inactive: 43%
10 | CCN(c1ccccc1)S(=O)(=O)c1cnc[nH]1 | active: -69.9%
11 | COc1ccc(/C=N/NC(=O)Nc2cccc3nsnc23)cc1OC | inconclusive: -48.6%
12 | O=C(OCn1ncc(Br)c(Br)c1=O)c1c(F)cccc1F | active: -95.2%
13 | CC(C)(C)c1csc(NC(=O)c2ccccc2O)n1 | inconclusive: -40.2%
14 | CN(C)c1ccc(-n2cccc2/C=N/n2cnnc2)cc1 | inconclusive: -50.4%
15 | COC(=O)C[C@](O)(CCCC(C)(C)O)C(=O)O[C@@H]1C(OC)=C[C@]23CCCN2CCc2cc4c(cc2[C@H]13)OCO4 | active: -73.1%
16 | O=C(O)c1ccc(/C=C/C(=O)c2ccc3c(c2)OCCCO3)cc1 | inactive: -12.2%
17 | CCCN1CCN(CCCNC(=O)c2ccc3nc(N4CCC(C)CC4)sc3c2)CC1 | inconclusive: -51.5%
18 | COC(=O)C1=CN(c2ccc(OC)cc2)C=C(C(=O)OC)C1c1ccc([N+](=O)[O-])cc1 | inactive: 0.817%
19 | O=C(CCl)Nc1ccc(Sc2ccc(NC(=O)CCl)cc2)cc1 | active: -61.6%
20 | C=CCSC1=N/C(=C\c2ccc(C)o2)C(=O)S1 | inconclusive: -39.2%
21 | CCCNC(=S)N1CCCC(c2nc3ccccc3[nH]2)C1 (stereo unspecified) | active: -82%
22 | Cc1ccc(CNC(=O)CCc2cn(C)c3ccccc23)cc1 | inactive: 3.28%
23 | CCN(C(=O)c1ccc2c(SCC(=O)O)c3c(nc2c1)CCC3)c1cc(Cl)ccc1OC | active: -72.8%

Row | Compound | activity change, negative = inhibition
24 | c1ccc(COc2cccc(CN3CCN(c4ccccn4)CC3)c2)cc1 | active: -55.2%
25 | CCCC(=O)N(C1CC(C)C(C#N)(C#N)C1(C#N)C#N)N(C)C (stereo unspecified) | inconclusive: -55%
26 | CN1CCN(c2ncnc3c2cnn3-c2ccc(Cl)cc2)CC1 | inconclusive: -50.2%
27 | CCOc1ccc(-c2noc(-c3ccncc3)n2)cc1OCC | inactive: 0.736%
28 | CCOC(=O)c1oc2ccc(CNCCO)c(Cl)c2c1C | inconclusive: -49.9%
29 | COc1ccc(-c2csc3ncnc(N4CCN(S(=O)(=O)c5cccc(C(F)(F)F)c5)CC4)c23)cc1 | inconclusive: -16.6%
30 | COc1ccc(NS(=O)(=O)c2ccc(NC(=O)c3ccc(N(C)S(C)(=O)=O)cc3)cc2)c(OC)c1 | inactive: -15.6%
31 | CC1(C)CC(NC(=O)c2cc(S(=O)(=O)N3CCCCC3)ccc2Cl)CC(C)(C)N1 | inactive: -5.66%
32 | Cc1ccc(S(=O)(=O)N2CCC(C)CC2)cc1[N+](=O)[O-] | inconclusive: -52.9%
33 | CC(=O)[C@@]1(O)C(C)CC2C3C=C(C)C4=Cc5c(cnn5-c5ccccc5)C[C@]4(C)C3C(O)C[C@@]21C (stereo partly specified) | inconclusive: -49.8%
34 | CN1CCN(c2ccc(NC(=O)c3ccc([N+](=O)[O-])o3)cc2Cl)CC1 | active: -77.5%
35 | COc1ccc(C(=O)COC(=O)CCN2C(=O)C3C4CC(C(Br)C4Br)C3C2=O)cc1 (stereo unspecified) | active: -62.5%
36 | CNC(=O)COC(=O)c1ccccc1C(=O)c1ccc(Cl)c([N+](=O)[O-])c1 | inconclusive: 82.8%
37 | CCS(=O)(=O)c1ncc(Cl)c(C(=O)Nc2ccc(S(=O)(=O)N(C)c3ccccc3)cc2)n1 | inconclusive: -40.8%
38 | COc1cc(NS(=O)(=O)c2ccc(NC(=O)/C=C/C(=O)O)cc2)nc(OC)n1 | active: -71.9%
39 | Nc1c(N(C(=O)Nc2ccc(Cl)c(Cl)c2)C2CCCC2)c(=O)[nH]c(=O)n1Cc1ccccc1 | inconclusive: -47.1%
40 | COc1ccc(N2CCN(Cc3nnnn3C3CCCCC3)CC2)cc1 | inactive: 3.59%
41 | O=C(Cn1cc(C(=O)C2CC2)c2ccccc21)NC1CCCC1 | inconclusive: -48.2%
42 | CC1CCN(CC(=O)c2cccs2)CC1 | active: -62%
43 | Cc1cc(=O)[nH]c(NN=C2CCC(C(C)(C)C)CC2)n1 (stereo unspecified) | inconclusive: -47.8%
44 | CCc1ccc2nc3sc(C(=O)Nc4nnc(CC)s4)c(N)c3cc2c1 | inconclusive: -50.8%
45 | CC(=O)Nc1cccc(/C(C)=N/NC(=O)c2ccc(CN3CCOCC3)cc2)c1 | inactive: 1.35%
46 | COc1ccc(C(CC(=O)N2CCCC2)c2c(OC)cc(OC)c3c(-c4ccccc4)cc(=O)oc23)cc1 (stereo unspecified) | inconclusive: -34.1%

Copied from above, nos. 12–37
Row | Compound | activity change, negative = inhibition
12 | O=C(OCn1ncc(Br)c(Br)c1=O)c1c(F)cccc1F | active: -95.2%
13 | CC(C)(C)c1csc(NC(=O)c2ccccc2O)n1 | inconclusive: -40.2%
14 | CN(C)c1ccc(-n2cccc2/C=N/n2cnnc2)cc1 | inconclusive: -50.4%
15 | COC(=O)C[C@](O)(CCCC(C)(C)O)C(=O)O[C@@H]1C(OC)=C[C@]23CCCN2CCc2cc4c(cc2[C@H]13)OCO4 | active: -73.1%
16 | O=C(O)c1ccc(/C=C/C(=O)c2ccc3c(c2)OCCCO3)cc1 | inactive: -12.2%
17 | CCCN1CCN(CCCNC(=O)c2ccc3nc(N4CCC(C)CC4)sc3c2)CC1 | inconclusive: -51.5%
18 | COC(=O)C1=CN(c2ccc(OC)cc2)C=C(C(=O)OC)C1c1ccc([N+](=O)[O-])cc1 | inactive: 0.817%
19 | O=C(CCl)Nc1ccc(Sc2ccc(NC(=O)CCl)cc2)cc1 | active: -61.6%
20 | C=CCSC1=N/C(=C\c2ccc(C)o2)C(=O)S1 | inconclusive: -39.2%
21 | CCCNC(=S)N1CCCC(c2nc3ccccc3[nH]2)C1 (stereo unspecified) | active: -82%
22 | Cc1ccc(CNC(=O)CCc2cn(C)c3ccccc23)cc1 | inactive: 3.28%
23 | CCN(C(=O)c1ccc2c(SCC(=O)O)c3c(nc2c1)CCC3)c1cc(Cl)ccc1OC | active: -72.8%
24 | c1ccc(COc2cccc(CN3CCN(c4ccccn4)CC3)c2)cc1 | active: -55.2%
25 | CCCC(=O)N(C1CC(C)C(C#N)(C#N)C1(C#N)C#N)N(C)C (stereo unspecified) | inconclusive: -55%
26 | CN1CCN(c2ncnc3c2cnn3-c2ccc(Cl)cc2)CC1 | inconclusive: -50.2%
27 | CCOc1ccc(-c2noc(-c3ccncc3)n2)cc1OCC | inactive: 0.736%
28 | CCOC(=O)c1oc2ccc(CNCCO)c(Cl)c2c1C | inconclusive: -49.9%
29 | COc1ccc(-c2csc3ncnc(N4CCN(S(=O)(=O)c5cccc(C(F)(F)F)c5)CC4)c23)cc1 | inconclusive: -16.6%
30 | COc1ccc(NS(=O)(=O)c2ccc(NC(=O)c3ccc(N(C)S(C)(=O)=O)cc3)cc2)c(OC)c1 | inactive: -15.6%
31 | CC1(C)CC(NC(=O)c2cc(S(=O)(=O)N3CCCCC3)ccc2Cl)CC(C)(C)N1 | inactive: -5.66%
32 | Cc1ccc(S(=O)(=O)N2CCC(C)CC2)cc1[N+](=O)[O-] | inconclusive: -52.9%
33 | CC(=O)[C@@]1(O)C(C)CC2C3C=C(C)C4=Cc5c(cnn5-c5ccccc5)C[C@]4(C)C3C(O)C[C@@]21C (stereo partly specified) | inconclusive: -49.8%
34 | CN1CCN(c2ccc(NC(=O)c3ccc([N+](=O)[O-])o3)cc2Cl)CC1 | active: -77.5%
35 | COc1ccc(C(=O)COC(=O)CCN2C(=O)C3C4CC(C(Br)C4Br)C3C2=O)cc1 (stereo unspecified) | active: -62.5%
36 | CNC(=O)COC(=O)c1ccccc1C(=O)c1ccc(Cl)c([N+](=O)[O-])c1 | inconclusive: 82.8%
37 | CCS(=O)(=O)c1ncc(Cl)c(C(=O)Nc2ccc(S(=O)(=O)N(C)c3ccccc3)cc2)n1 | inconclusive: -40.8%

Remaining list, next part

Row | Compound | activity change, negative = inhibition
47 | O=C(O)C1CCC(=O)N(C2CCCCC2)C1c1ccccc1Cl (stereo unspecified) | inconclusive: -47.6%
48 | CC(=O)Nc1ccc(NC(=O)CSc2nnc(-c3ccco3)o2)cc1 | inactive: 2.98%
49 | N#C/C(=C\c1ccccn1)c1ccccn1 | active: -59.8%
50 | COc1ccc(NC(=O)CSc2nc(C)cs2)cc1 | active: -86.2%
51 | CC(NC(=O)CSc1n[nH]c(N)n1)c1ccccc1 (stereo unspecified) | inactive: 0.248%
52 | CCNc1nc(NC#N)nc(SCC(=O)OCC)n1 | inactive: -1.88%
53 | COc1ccc(N=CC2=C(O)c3ccccc3C2=O)c(OC)c1 | active: -72.8%
54 | Cc1cc(C=C2C(=O)c3ccccc3C2=O)c(C)n1-c1ccccc1 | inconclusive: -47.6%
55 | CCc1ccc(C(=O)NC(=S)Nc2ccc(N3CCOCC3)cc2)cc1 | inconclusive: -50.4%
56 | Cc1cc(C)c(S(=O)(=O)N(C)c2ccccc2)c(C)c1 | inactive: 4.76%
57 | COC(=O)c1cc(S(=O)(=O)NCCc2ccccc2)c[nH]1 | active: -81.3%
58 | C=C(C)Cn1c(CCCNC(=O)C(C)(C)C)nc2ccccc21 | inconclusive: -50.5%
59 | COCC(=O)NC1CC2CCCC(C1)N2Cc1ccccc1 (stereo unspecified) | inconclusive: -21.1%
60 | CCN(C(=O)COC(=O)/C=C/c1ccccc1)C1CCCCC1 | inconclusive: -24.5%
61 | Cc1cc(C)nc(Nc2cccc(C(F)(F)F)c2)n1 | inactive: -0.59%
62 | Cc1cc(C)n(C(=O)CNC(=O)Cc2ccccc2)n1 | inconclusive: -51.4%
63 | CCC1CSC(Nc2ccc(C(=O)/C=C/c3ccc(OC)c(OC)c3)cc2)=N1 (stereo unspecified) | inactive: 0.359%
64 | CC(/C=N\NC(=O)c1cc(C)oc1C)=C\c1ccccc1 | active: -52.1%
65 | Cc1ccc(-n2nc3c(=O)n(CCCC(=O)N4CCC(C(N)=O)CC4)nc(C)c3c2C)cc1 | active: -52.2%
66 | CCOC(=O)c1ccc(Oc2nc(NC)nc(Nc3ccccc3)n2)cc1 | active: -56.5%
67 | Cc1cc(C(F)(F)F)nc(SCc2ccc(C(=O)O)o2)n1 | inconclusive: -49%
68 | CC1=C(C(=O)OCc2ccc3c(c2)OCO3)C(c2ccccc2)NC(=O)N1 (stereo unspecified) | inconclusive: -51.1%
69 | CC1CCCCC1NC(=O)COC(=O)CNC(=O)c1cccc(F)c1 (stereo unspecified) | inactive: 5.44%

Row | Compound | activity change, negative = inhibition
70 | Nc1cccc(CCc2nc3ccccc3[nH]2)c1 | inconclusive: -19.7%
71 | COc1ccc2c(=O)c(C(=O)NCCc3ccccc3)c[nH]c2c1 | inactive: 27.5%
72 | CC(=O)C1C(=O)c2c(cccc2[N+](=O)[O-])C1=Nc1ccc(S(N)(=O)=O)cc1 (stereo unspecified) | active: -90.8%
73 | CC1CCC(N2CCN(S(C)(=O)=O)CC2)CC1 (stereo unspecified) | inconclusive: -32.6%
74 | CCOc1ccc(-n2c(O)c(/C=N/Nc3nnc(C)c(=O)[nH]3)c3ccccc3c2=O)cc1 | inconclusive: -43.7%
75 | CC(C)N1C(=O)CN(C2CCCCCC2)C(=O)C1c1ccccc1F (stereo unspecified) | active: -55.5%
76 | CCc1cccc(C)c1NC(=O)CCNC(=O)c1cccc(C)c1 | inactive: 1.03%
77 | COC(=O)C(c1ccccc1)C1(O)CC(C)N(C)CC1C (stereo unspecified) | active: -76.1%
78 | CCN1C(=O)C(CC(=O)Nc2ccc(OC)cc2)N(Cc2ccc3c(c2)OCO3)C1=S (stereo unspecified) | active: -77.6%
79 | O=C(CC(Nc1ccccc1Cl)C(=O)O)c1ccccc1 (stereo unspecified) | inconclusive: -42.7%
80 | CCCCCCc1cc2cc(S(=O)(=O)c3ccc(F)c(Cl)c3)c(=O)oc2cc1O | inconclusive: -44.2%
81 | Cc1c(C)n(CC(O)CN2CCCCC2)c2ccccc12 (stereo unspecified) | inactive: -5.49%
82 | CN(C)C(=O)N1CCC(C(=O)NCc2ccc(F)cc2Cl)CC1 | active: -68.8%
83 | CCN1CCN(C(=O)C2CCN(C(=O)c3cc4sccc4n3CC)CC2)CC1 | active: -69.9%
84 | Cc1cc(C)nc(SCC(=O)Nc2ccc(S(=O)(=O)Nc3ncccn3)cc2)n1 | inactive: -1.91%
85 | O=C(O)CCNS(=O)(=O)c1ccccc1C(F)(F)F | active: -60.4%
86 | CCOc1ccc(-c2noc(CCC(=O)O)n2)cc1 | inconclusive: -49.2%
87 | CCOc1cc2c(cc1OCC)C(c1ccc(OC)cc1)N(c1ccccc1)C(=O)C2 (stereo unspecified) | active: -85.1%
88 | COC(=O)c1ccc(CN2CCN(CCc3ccccc3)C(CCO)C2)cc1 (stereo unspecified) | active: -72%
89 | COc1ccc(NC(=S)N2CCC(c3nc4ccc(Cl)cc4[nH]3)CC2)c(OC)c1 | inconclusive: -49.6%
90 | COc1c(Br)cc(Br)cc1C(=O)O | inactive: 86.9%
91 | C=CCN1C(=O)N/C(=C/c2ccc(N3CCOCC3)o2)C1=O | inconclusive: -29.4%
